Data as given in patent publication US20170049855A1 (NEW YORK UNIVERSITY, published 2017).
No constants are given. Whether binding was seen depends on the method and setting. Binding seen in cells or lysates may run through a third protein. A result given as binding can be weak or reduced; the word gives no strength.

How the values were obtained:
[1] = target: T1, mouse GBA (endogenous, lung tissue) (mouse, UniProt P17439 20-515); assay: co-IP with anti-GBA antibody, detected with anti-PGRN antibody, lung of WT mice
T1 construct: Endogenous protein precipitated or detected with anti-GBA antibody; also called glucocerebrosidase
T1 sequence (looked up): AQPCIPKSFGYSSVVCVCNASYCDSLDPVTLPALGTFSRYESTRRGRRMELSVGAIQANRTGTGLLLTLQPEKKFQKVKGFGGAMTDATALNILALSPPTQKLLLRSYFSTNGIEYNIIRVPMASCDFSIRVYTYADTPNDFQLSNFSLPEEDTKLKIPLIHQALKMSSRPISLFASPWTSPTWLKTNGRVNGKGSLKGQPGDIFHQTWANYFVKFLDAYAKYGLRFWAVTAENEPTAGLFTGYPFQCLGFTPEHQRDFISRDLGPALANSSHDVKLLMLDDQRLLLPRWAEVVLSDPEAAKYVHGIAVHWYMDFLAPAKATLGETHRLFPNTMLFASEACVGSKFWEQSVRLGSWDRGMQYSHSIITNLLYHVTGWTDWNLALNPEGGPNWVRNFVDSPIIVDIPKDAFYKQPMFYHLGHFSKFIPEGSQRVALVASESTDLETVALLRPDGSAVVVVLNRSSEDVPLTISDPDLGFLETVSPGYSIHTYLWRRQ

[2] = target: T1, mouse GBA (endogenous, lung tissue); assay: co-IP with anti-GBA antibody, probed with anti-PGRN antibody, mouse lung lysate
[3] = target: T1, mouse GBA (endogenous, lung tissue); assay: co-immunoprecipitation from WT mouse lung lysate, IP: GBA or mIgG, IB: PGRN and IB: GBA

Measured: binding

mouse PGRN (endogenous, lung tissue of WT mice) (ligand)
binds: all assays above
